# According to PubChem BioAssay (NCATS):
# The shares of active, inactive and inconclusive entries below differ from those in the screen. For part of these data: Where the call is inconclusive, the potency comes from a doubtful curve fit. The source made the active and inactive calls. The call rests on the fitted dose curve; in most records, active means well fitted curve in the direction sought with a large enough effect; inconclusive means small, poorly fitted or top-dose-only effect, or another doubt; inactive means no such curve, though single readings can be large; an effect the other way counts as inactive or inconclusive.
# Legend:
# [1] = qHTS of pediatric cancer cell lines to identify multiple opportunities for drug repurposing: Primary screen for Rh41 cells (AID 1347108); further: nearly all actives have a fitted effect of over 70% in size; further: potency means the concentration at half of the fitted maximal effect;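 on activity change, negative = cytotoxic: luminescence drop marks cytotoxic hits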
# In short: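 ATP-based luminescence (CellTiter-Glo) quantifies viability after a 48-hour exposure. Compounds are dosed across 8 or 11 final concentrations; DMSO and 2.3 µM bortezomib serve as controls.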
# [2] = qHTS of pediatric cancer cell lines to identify multiple opportunities for drug repurposing: Confirmatory screen for A673 cells (AID 1347110);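 further: cells exposed to compound for 48 h before the viability read; nearly all actives have a fitted effect of over 65% in size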; further: potency means the concentration at half of the fitted maximal effect
# In short: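 Viability was read as ATP luminescence (CellTiter-Glo) after 48 h of compound exposure at 37 C in A673 cells seeded at 500-1,000/well. Titrations reached 46 uM final, with 11 points in the confirmatory screen. Concentration-response curves were fitted directly.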
# [3] = qHTS of pediatric cancer cell lines to identify multiple opportunities for drug repurposing: Confirmatory screen for SK-N-MC cells (AID 1347111);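 further: cells exposed to compound for 48 h before the readout; nearly all actives have a fitted effect of over 70% in size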; further: potency means the concentration at half of the fitted maximal effect
# In short: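 Seed 500-1,000 cells/well; rest 5 h at 37 degrees C. Pin-transfer compounds, 11-point titration. Incubate 48 h. Add CellTiter-Glo, 15 min RT, read luminescence.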
# [4] = qHTS of pediatric cancer cell lines to identify multiple opportunities for drug repurposing: Confirmatory screen for BT-12 cells (AID 1347112); further: nearly all actives have a fitted effect of over 55% in size; further: potency means the concentration at half of the fitted maximal effect
# In short: (§1)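 Cells (500-1,000/well) rested 5 h, then received compounds for 48 h; metabolically active cells were measured by CellTiter-Glo luminescence. Final concentrations spanned up to 46 µM (MIPE, 11-point) or 0.59 nM-46 µM (NPC, 8-point) in primary screens, 11-point in follow-ups.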
# [5] = qHTS of pediatric cancer cell lines to identify multiple opportunities for drug repurposing: Confirmatory screen for LAN-5 cells (AID 1347113); further: nearly all actives have a fitted effect of over 65% in size; further: potency means the concentration at half of the fitted maximal effect
# In short: as §1
# [6] = qHTS of pediatric cancer cell lines to identify multiple opportunities for drug repurposing: Confirmatory screen for NB-EBc1 cells (AID 1347115);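 further: cells exposed to compound for 48 h before the viability read; nearly all actives have a fitted effect of over 45% in size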; further: potency means the concentration at half of the fitted maximal effect
# In short: as §1
# [7] = qHTS of pediatric cancer cell lines to identify multiple opportunities for drug repurposing: Confirmatory screen for BT-37 cells (AID 1347117); further: nearly all actives have a fitted effect of over 55% in size; further: potency means the concentration at half of the fitted maximal effect
# In short: as §1
# [8] = qHTS of pediatric cancer cell lines to identify multiple opportunities for drug repurposing: Confirmatory screen for MG 63 (6-TG R) cells (AID 1347119); further: nearly all actives have a fitted effect of over 55% in size; further: potency means the concentration at half of the fitted maximal effect
# In short: as §1
# [9] = qHTS of pediatric cancer cell lines to identify multiple opportunities for drug repurposing: Confirmatory screen for control Hh wild type fibroblast cells (AID 1347121); further: nearly all actives have a fitted effect of over 70% in size; further: potency means the concentration at half of the fitted maximal effect
# In short: as §1
# [10] = qHTS of pediatric cancer cell lines to identify multiple opportunities for drug repurposing: Confirmatory screen for U-2 OS cells (AID 1347122); further: nearly all actives have a fitted effect of over 65% in size; further: potency means the concentration at half of the fitted maximal effect
# In short: as §1
# [11] = qHTS of pediatric cancer cell lines to identify multiple opportunities for drug repurposing: Confirmatory screen for Rh41 cells (AID 1347123); further: nearly all actives have a fitted effect of over 60% in size; further: potency means the concentration at half of the fitted maximal effect
# In short: as §1
# [12] = qHTS of pediatric cancer cell lines to identify multiple opportunities for drug repurposing: Confirmatory screen for Rh18 cells (AID 1347125); settings: Rh18 rhabdomyosarcoma cells, viability; activity change, negative = cytotoxic: at 45.9 µM (top of the series); further: nearly all actives have a fitted effect of over 55% in size; further: potency means the concentration at half of the fitted maximal effect
# In short: as §1
# [13] = qHTS of pediatric cancer cell lines to identify multiple opportunities for drug repurposing: Confirmatory screen for TC32 cells (AID 1347118); settings: TC32 Ewing sarcoma cells viability qHTS; series mostly up to 45.9 µM;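 further: cells exposed to compound for 48 h before the read; nearly all actives have a fitted effect of over 65% in size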; further: potency means the concentration at half of the fitted maximal effect
# In short: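 Measured quantity: luminescence from CellTiter-Glo, reflecting metabolically active TC32 cells following 48 h of compound. Curves came straight from multi-point titrations, with 8 or 11 points in primary and 11 in confirmatory screening.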
# [14] = qHTS of pediatric cancer cell lines to identify multiple opportunities for drug repurposing: Confirmatory screen for DAOY cells (AID 1347114); further: nearly all actives have a fitted effect of over 65% in size
# In short: (§2)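 Viability measured as metabolically active cells via CellTiter-Glo luminescence following 48 hours of compound exposure, 11-point dilutions in confirmatory testing. 500-1,000 cells/well plated 5 hours before dosing; controls were DMSO and 2.3 µM bortezomib.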
# [15] = qHTS of pediatric cancer cell lines to identify multiple opportunities for drug repurposing: Confirmatory screen for RD cells (AID 1347124); further: potency means the concentration at half of the fitted maximal effect
# In short: as §1
# [16] = qHTS of pediatric cancer cell lines to identify multiple opportunities for drug repurposing: Confirmatory screen for SJ-GBM2 cells (AID 1347116); further: nearly all actives have a fitted effect of over 60% in size; further: potency means the concentration at half of the fitted maximal effect
# In short: as §2
# [17] = qHTS of pediatric cancer cell lines to identify multiple opportunities for drug repurposing: Confirmatory screen for NB1643 cells (AID 1347109); settings: NB1643 neuroblastoma cell viability; activity change, negative = cytotoxic: at 45.9 µM (top of the series); further: nearly all actives have a fitted effect of over 45% in size
# In short: as §1
compound,measurement,setting,value
Cc1cccc(-c2[nH]ncc2-c2ccc3ncccc3n2)n1,Potency,[1],"inconclusive: 0.332 µM [cytotoxic, partial curve, poor fit]"
CCNC(=O)c1cc2c(-c3cc(OCCN4CCCC4)c(Cl)cc3Cl)nc(N)nc2s1,Potency,[1],"inconclusive: 4.69 µM [cytotoxic, full curve]"
CC[C@@H]1C=C(C)C[C@H](C)C[C@H](OC)[C@H]2O[C@@](O)(C(=O)C(=O)N3CCCC[C@@H]3C(=O)O[C@H](C(C)=C[C@@H]3CC[C@H](Cl)[C@H](OC)C3)[C@H](C)[C@@H](O)CC1=O)[C@H](C)C[C@H]2OC,Potency,[1],"inconclusive: 20.9 µM [cytotoxic, partial curve]"
same,Potency,[2],inactive
same,Potency,[3],"inconclusive: 9.27 µM [cytotoxic, full curve, poor fit]"
same,Potency,[4],"inconclusive: 13.1 µM [cytotoxic, partial curve]"
same,Potency,[5],"inconclusive: 0.293 µM [rising, full curve, poor fit]"
same,Potency,[6],active: 23.3 µM
same,Potency,[7],"inconclusive: 20.8 µM [cytotoxic, partial curve]"
same,Potency,[8],"inconclusive: 36.9 µM [cytotoxic, single point]"
same,Potency,[9],inactive
same,Potency,[10],"inconclusive: 20.8 µM [cytotoxic, single point]"
same,Potency,[11],active: 13.1 µM
same,Potency,[12],"inconclusive: 20.8 µM [cytotoxic, partial curve]"
Cc1nnc(C(C)C)n1C1C[C@H]2CC[C@@H](C1)N2CC[C@H](NC(=O)C1CCC(F)(F)CC1)c1ccccc1 (stereo partly drawn),Potency,[4],"inconclusive: 10.4 µM [cytotoxic, full curve]"
same,Potency,[5],"inconclusive: 1.65 µM [cytotoxic, full curve, poor fit]"
same,Potency,[13],"inconclusive: 1.17 µM [cytotoxic, full curve, poor fit]"
same,Potency,[8],"inconclusive: 2.93 µM [cytotoxic, full curve, poor fit]"
same,Potency,[9],"inconclusive: 8.27 µM [cytotoxic, partial curve, poor fit]"
same,Potency,[11],inactive
same,Potency,[12],active: 6.57 µM
Nc1nc2c(ncn2COCCO)c(=O)[nH]1,Potency,[2],"inconclusive: 36.9 µM [cytotoxic, single point]"
same,Potency,[3],inactive
same,Potency,[5],inactive
same,Potency,[6],inactive
same,Potency,[13],inactive
same,Potency,[9],inactive
same,Potency,[12],inactive
CCOC(=O)O[C@]1(C(=O)OCCl)CC[C@@H]2[C@H]3CCC4=CC(=O)C=C[C@]4(C)[C@@H]3[C@@H](O)C[C@@]21C,Potency,[1],inactive
CN1[C@H]2CC[C@H]1CC(OC(=O)c1c[nH]c3ccccc13)C2 (stereo partly drawn),Potency,[1],"inconclusive: 16.6 µM [cytotoxic, partial curve, poor fit]"
NC(=O)c1ncn([C@@H]2O[C@H](CO)[C@@H](O)[C@@H]2O)c1O,Potency,[1],inactive
CN(CCOc1ccc(CC2SC(=O)NC2=O)cc1)c1ccccn1 (stereo not drawn),Potency,[1],"inconclusive: 14.8 µM [cytotoxic, partial curve]"
CC(C)NCC(O)c1ccc(NS(C)(=O)=O)cc1 (stereo not drawn),Potency,[1],"inconclusive: 16.6 µM [cytotoxic, partial curve]"
same,Potency,[2],inactive
same,Potency,[3],inactive
same,Potency,[5],inactive
same,Potency,[14],inactive
same,Potency,[6],inactive
same,Potency,[7],inactive
same,Potency,[13],inactive
same,Potency,[11],inactive
O=c1[nH]cnc2c1ncn2[C@H]1CC[C@@H](CO)O1,Potency,[2],inactive
same,Potency,[3],"inconclusive: 2.61 µM [rising, full curve, poor fit]"
same,Potency,[5],"inconclusive: 16.5 µM [rising, partial curve, poor fit]"
same,Potency,[13],inactive
same,Potency,[10],"inconclusive: 7.37 µM [cytotoxic, full curve, poor fit]"
same,Potency,[11],inactive
same,Potency,[15],inactive
same,Potency,[12],"inconclusive: 0.0104 µM [rising, full curve, poor fit]"
CC1CCN(c2cc(N3CCN(C)CC3)ccc2NC(=O)c2cc(C#N)c[nH]2)CC1,Potency,[1],"inconclusive: 41.8 µM [cytotoxic, partial curve, poor fit]"
O=C(O)CCC1CCC(c2cc(F)ccc2F)(S(=O)(=O)c2ccc(Cl)cc2)CC1 (stereo not drawn),Potency,[1],active: 5.9 µM
same,Potency,[2],"inconclusive: 0.585 µM [cytotoxic, full curve]"
same,Potency,[4],active: 26.1 µM
same,Potency,[5],"inconclusive: 20.8 µM [rising, partial curve, poor fit]"
same,Potency,[16],inactive
same,Potency,[10],"inconclusive: 9.27 µM [cytotoxic, partial curve]"
same,Potency,[11],"inconclusive: 20.8 µM [cytotoxic, single point]"
same,Potency,[15],inactive
N[C@H]1CN(c2c(F)cc3c(=O)c(C(=O)O)cn(C4C[C@@H]4F)c3c2Cl)CC12CC2 (stereo partly drawn),Potency,[1],"inconclusive: 1.32 µM [cytotoxic, partial curve]"
CO[C@H]1C[C@@H]2CC[C@@H](C)[C@@](O)(O2)C(=O)C(=O)N2CCCC[C@@H]2C(=O)O[C@H]([C@@H](C)C[C@@H]2CC[C@H](O)[C@H](OC)C2)CC(=O)[C@H](C)C=C(C)[C@@H](O)[C@@H](OC)C(=O)[C@H](C)C[C@H](C)C=CC=CC=C1C,Potency,[1],"inconclusive: 5.9 µM [cytotoxic, partial curve]"
O=c1[nH]c(=O)n([C@H]2C[C@@H](O)[C@@H](CO)O2)cc1I,Potency,[1],inactive
CC1(C)O[C@H]2C[C@@H]3[C@H]4CCC5=CC(=O)C=C[C@]5(C)[C@@]4(F)[C@@H](O)C[C@]3(C)[C@]2(C(=O)CO)O1,Potency,[1],inactive
same,Potency,[3],inactive
same,Potency,[4],inactive
same,Potency,[5],inactive
same,Potency,[6],"inconclusive: 36.9 µM [cytotoxic, single point]"
same,Potency,[13],"inconclusive: 36.9 µM [cytotoxic, single point]"
same,Potency,[8],inactive
same,Potency,[9],"inconclusive: 0.117 µM [rising, full curve, poor fit]"
same,Potency,[11],inactive
same,Potency,[15],inactive
Clc1ccc(C(Cn2ccnc2)OCc2ccsc2Cl)c(Cl)c1 (stereo not drawn),Potency,[1],"inconclusive: 26.4 µM [cytotoxic, single point]"
same,Potency,[6],"inconclusive: 29.3 µM [cytotoxic, single point]"
same,Potency,[16],inactive
same,Potency,[8],"inconclusive: 26.1 µM [cytotoxic, single point]"
same,Potency,[9],inactive
same,Potency,[10],"inconclusive: 32.9 µM [cytotoxic, single point]"
same,Potency,[11],"inconclusive: 20.8 µM [cytotoxic, partial curve, poor fit]"
same,Potency,[15],"inconclusive: 32.9 µM [cytotoxic, single point]"
CC1(C)CCC[C@@]2(C)[C@@H]1CC[C@@]1(C)OC(=O)C[C@H]21,Potency,[6],inactive
same,Potency,[16],"inconclusive: 3.69 µM [cytotoxic, full curve, poor fit]"
same,Potency,[13],"inconclusive: 32.9 µM [cytotoxic, single point]"
same,Potency,[10],inactive
same,Potency,[11],"inconclusive: 0.0522 µM [cytotoxic, full curve, poor fit]"
same,Potency,[15],inconclusive: 0.001 µM [cytotoxic]
same,Potency,[12],inactive
C[C@@]1(c2cc(-c3cncnc3)c(F)cc2F)CCSC(N)=N1,Potency,[4],"inconclusive: 18.5 µM [cytotoxic, partial curve]"
same,Potency,[5],"inconclusive: 36.9 µM [cytotoxic, single point]"
same,Potency,[14],inactive
same,Potency,[6],"inconclusive: 10.4 µM [cytotoxic, full curve]"
same,Potency,[10],"inconclusive: 36.9 µM [cytotoxic, single point]"
same,Potency,[15],"inconclusive: 32.9 µM [cytotoxic, single point]"
CCOc1ccc(Nc2nc(-c3c(C)nc4ccccn34)cs2)cc1,Potency,[4],"inconclusive: 0.329 µM [cytotoxic, full curve]"
same,Potency,[6],"inconclusive: 0.369 µM [cytotoxic, full curve]"
same,Potency,[16],"inconclusive: 0.0928 µM [cytotoxic, full curve]"
same,Potency,[8],active: 0.104 µM
same,Potency,[9],inactive
same,Potency,[11],"inconclusive: 0.0329 µM [cytotoxic, full curve]"
same,Potency,[15],"inconclusive: 0.0465 µM [cytotoxic, full curve]"
N[C@@H](Cc1cc(I)c(Oc2cc(I)c(O)c(I)c2)c(I)c1)C(=O)O,Potency,[1],"inconclusive: 18.7 µM [cytotoxic, partial curve, poor fit]"
O=C(CCc1ccc(O)cc1)c1c(O)cc(O)cc1O,Potency,[17],inactive
same,Potency,[3],inactive
same,Potency,[6],inactive
same,Potency,[16],"inconclusive: 2.61 µM [rising, full curve]"
same,Potency,[7],inactive
same,Potency,[13],inactive
same,Potency,[15],inactive
N[C@@H](CC(=O)N1CCn2c(nnc2C(F)(F)F)C1)Cc1cc(F)c(F)cc1F,Potency,[1],"inconclusive: 13.2 µM [cytotoxic, partial curve]"

# For convenience, some entries already given:
compound,measurement,setting,value
CC(C)NCC(O)c1ccc(NS(C)(=O)=O)cc1 (stereo not drawn),Potency,[1],"inconclusive: 16.6 µM [cytotoxic, partial curve]"
same,Potency,[2],inactive
same,Potency,[3],inactive
same,Potency,[5],inactive
same,Potency,[14],inactive
same,Potency,[6],inactive
